Measured values from PubChem BioAssay AID1671190 (National Center for Advancing Translational Sciences (NCATS), 2021).
The whole screen tested about 580,000 compounds, of which about 6,100 (1.1%) were called active. Inconclusive results, whose numbers are uncertain, are shown with a selection of clear calls. Calls follow the shape of the dose curve; as a rule, active = well fitted inhibition curve with a large enough effect; inconclusive = small, poorly fitted or top-dose-only effect, or another doubt; inactive = no such curve, though single readings can be large or run the other way. A potency beside an inconclusive call is a rough fit, not a confirmed value.

Amino acid sequences for entries named in this document (tags omitted). A change or cut given only in a name is not applied to a line headed by its entry.
UniProt P18054: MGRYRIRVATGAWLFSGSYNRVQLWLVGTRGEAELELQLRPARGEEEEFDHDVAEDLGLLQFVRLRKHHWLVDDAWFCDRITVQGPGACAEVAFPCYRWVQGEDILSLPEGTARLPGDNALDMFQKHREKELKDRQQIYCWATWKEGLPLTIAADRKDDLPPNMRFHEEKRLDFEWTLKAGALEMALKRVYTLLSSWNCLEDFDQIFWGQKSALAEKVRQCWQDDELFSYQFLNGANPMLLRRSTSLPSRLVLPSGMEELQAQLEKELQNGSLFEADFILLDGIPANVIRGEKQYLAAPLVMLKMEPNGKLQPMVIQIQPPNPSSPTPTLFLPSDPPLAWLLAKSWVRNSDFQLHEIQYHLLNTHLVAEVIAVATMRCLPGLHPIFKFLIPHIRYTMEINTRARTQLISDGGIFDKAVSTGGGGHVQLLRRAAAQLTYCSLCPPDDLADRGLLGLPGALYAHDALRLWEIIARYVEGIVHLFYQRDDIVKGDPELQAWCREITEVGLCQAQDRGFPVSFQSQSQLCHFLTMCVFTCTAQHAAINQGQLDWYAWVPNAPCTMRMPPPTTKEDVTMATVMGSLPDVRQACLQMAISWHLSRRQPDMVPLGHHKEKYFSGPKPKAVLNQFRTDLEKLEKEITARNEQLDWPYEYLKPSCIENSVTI

target: Polyunsaturated fatty acid lipoxygenase ALOX12 (Homo sapiens) (UniProt P18054); assay: Primary qHTS assay for inhibitors of human arachidonate 12S-lipoxygenase (ALOX12): Round 2; conditions: purified 12hLO, xylenol orange hydroperoxide absorbance; activity change, negative = inhibition: at 108 µM (top of the series)
Method in brief: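 Purified human 12hLO at 150 nM in 25 mM Hepes, 0.01% Triton X-100, pH 7.0, preincubated 15 min at room temperature with compound. Reaction started with 40 uM arachidonic acid, 30 min at room temperature. Hydroperoxide measured by Fe-xylenol orange, 573/405 nm absorbance ratio.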
% is scaled to controls: 0 for no effect and ±100 for the full control effect; potency is read from the fitted curve at half-maximal effect.

`Oc1cc2c(cc1CN1CCN(c3ccccc3F)CC1)OCO2` was tested. Which Potency did it give?
Its Potency is inconclusive: 100 µM [inhibitor, single point].

Which Potency does the source give for `CC(C)=CCCC1(C)C=Cc2c(O)c3c(c(CC=C(C)C)c2O1)OC12C(=CC4CC1C(C)(C)OC2(C/C=C(/C)C(=O)O)C4O)C3=O` (configuration not stated) here?
The Potency was inconclusive: 89.1 µM [inhibitor, single point].

For `COc1cc(Br)c(CNCCc2ccc3c(c2)OCO3)cc1OC`, which Potency is on record?
The Potency was inconclusive: 0.501 µM [inhibitor, full curve, poor fit].

With `O=C(Nc1cccc(Cl)c1)N1C[C@H]2C[C@@H](C1)c1cccc(=O)n1C2` as the molecule, how does the Potency read?
Its Potency is “inactive”.

`Cc1ncc2c(n1)C[C@@H]1CC[C@H]2N1S(=O)(=O)c1c(C)noc1C` was tested. Which Potency did it give?
The Potency was “inactive”.

`CCC(=O)c1cn(Cc2ccccc2C#N)c2ccccc12` was tested. Which Potency did it give?
Its Potency is “inactive”.

How did the Potency turn out when `C[N+](C)(C)CC1CCCC(C[N+](C)(C)C)C1=O` (configuration not stated) was run?
Its Potency is inconclusive: 56.2 µM [inhibitor, partial curve, poor fit].

`C#C[C@H]1CN2CC[C@H]1C[C@@H]2COC(=O)Nc1ccc(Br)cc1` was tested. Which Potency did it give?
Its Potency is “inactive”.

With `O=C(NC[C@H]1C[C@@H]2CCN1C[C@@H]2CN1CCC(Cc2ccccc2)CC1)Nc1ccccc1` as the molecule, how does the Potency read?
Its Potency is inconclusive: 28.2 µM [inhibitor, full curve, poor fit].

How did the Potency turn out when `O=C(O)CN1CCC[C@]2(C(=O)O)CN(Cc3ccncc3)CC[C@@H]12` was run?
The Potency was “inactive”.

`CN(C)c1ccc(C=C2C(=O)NC(=S)NC2=O)cc1` was tested. Which Potency did it give?
Its Potency is inconclusive: 50.1 µM [inhibitor, partial curve, poor fit].

`C#C[C@H]1CN2CC[C@H]1C[C@@H]2CNS(=O)(=O)c1ccc(OC)cc1` was tested. Which Potency did it give?
Its Potency is “inactive”.

`COc1cc2c(cc1CCc1ccccc1)N(C(=O)C1CCC(C)CC1)CC21CCN(C(C)=O)CC1` (configuration not stated) was tested. Which Potency did it give?
Its Potency is “inactive”.

With `COc1cc([N+](=O)[O-])c2nc(C)ccc2c1[N+](=O)[O-]` as the molecule, how does the Potency read?
Its Potency is “inactive”.

For `C(#CCN1CCOCC1)COCC#Cc1ccccc1`, which Potency is on record?
Its Potency is inconclusive: 10 µM [inhibitor, full curve, poor fit].

With `O=C1N(Cc2cccnc2)C[C@H]2CN(C3CCOCC3)CCN12` as the molecule, how does the Potency read?
The Potency was “inactive”.

How did the Potency turn out when `C#CCN1CCN(Cc2ccc(OC)c(OC)c2)CC1` was run?
Its Potency is “inactive”.

`O=Cc1cn(Cc2ccc(Br)cc2)c2ccccc12` was tested. Which Potency did it give?
The Potency was inconclusive: 5.01 µM [inhibitor, full curve].

How did the Potency turn out when `COC(=O)C1=C(c2ccc(F)cc2OCc2ccccc2)C[C@@H]2CC[C@H]1N2C(=O)NCc1ccccc1Cl` was run?
Its Potency is “inactive”.

`CCCN1CCc2cc(O)cc3c2[C@H]1Cc1ccc(O)c(O)c1-3` was tested. Which Potency did it give?
The Potency was inconclusive: 11.2 µM [inhibitor, full curve].

With `CC(C)C[C@@H]1COc2cccc(N3CCN(C)CC3)c2S(=O)(=O)N1` as the molecule, how does the Potency read?
The Potency was inconclusive: 126 µM [inhibitor, single point].

How did the Potency turn out when `CC(=O)OC1CC(OC2C(O)CC(OC3C(O)CC(OC4CCC5(C)C(CCC6C5CC(O)C5(C)C(C7=CC(=O)OC7)CCC65O)C4)OC3C)OC2C)OC(C)C1OC1OC(CO)C(O)C(O)C1O` (configuration not stated) was run?
The Potency was “inactive”.

How did the Potency turn out when `COc1cc2c(cc1OCc1ccccc1)N(C(=O)C1CCC(C)CC1)CC21CCN(C)CC1` (configuration not stated) was run?
Its Potency is inconclusive: 50.1 µM [inhibitor, partial curve, poor fit].

For `COc1ccc(CNCCc2cccc(F)c2)cc1`, which Potency is on record?
Its Potency is inconclusive: 1.26 µM [inhibitor, full curve].

`COc1ccc2[nH]c(C)c(CCNCc3cccc(C(F)(F)F)c3)c2c1` was tested. Which Potency did it give?
The Potency was inconclusive: 5.01 µM [inhibitor, full curve, poor fit].

For `O=S(=O)(c1ccccc1)N1CCN2CCCC2C1` (configuration not stated), which Potency is on record?
Its Potency is inconclusive: 141 µM [inhibitor, single point].

Which Potency does the source give for `Cc1ccc(-n2c(/C=C\c3ccc(F)c(F)c3)nc3ccccc3c2=O)c(C)c1` here?
The Potency was “inactive”.

For `Cn1nc(-c2ccc3ccccc3c2)cc1[C@H]1CN2CC[C@H]1C[C@@H]2COC(=O)Nc1ccccc1`, which Potency is on record?
Its Potency is inconclusive: 31.6 µM [inhibitor, single point].

Which Potency does the source give for `COc1cc2c(cc1OC)-c1c(OC)c(OC)cc3c1[C@H](C2)[N+](C)(C)CC3` here?
The Potency was inconclusive: 50.1 µM [inhibitor, partial curve, poor fit].

With `COc1ccc2[nH]c(C)c(CCNCc3cn(C)c4ccccc34)c2c1` as the molecule, how does the Potency read?
Its Potency is active: 5.62 µM.

With `O=C1NC(=S)NC(=O)C1Cc1ccccc1` as the molecule, how does the Potency read?
The Potency was active: 28.2 µM.

For `CC(C)NC(=O)N1C[C@@H]2C[C@H](C1)c1ccc(C3CCCCC3)c(=O)n1C2`, which Potency is on record?
Its Potency is active: 31.6 µM.

Which Potency does the source give for `CN(C)C(=O)[C@H]1CN2CC[C@H]1C[C@@H]2Cn1cc(COc2ccccc2)nn1` here?
The Potency was “inactive”.

`COC(=O)C1=C(c2ccc(OCc3ccccc3)cc2)C[C@@H]2CC[C@H]1N2C(=O)NCc1ccc(OC)cc1` was tested. Which Potency did it give?
Its Potency is “inactive”.

How did the Potency turn out when `Nc1c(C(=O)NCCN2CCOCC2)c2nc3ccccc3nc2n1Cc1ccccc1` was run?
Its Potency is inconclusive: 0.398 µM [inhibitor, full curve, poor fit].

Which Potency does the source give for `CCCNS(=O)(=O)c1ccc(OCC(=O)N2CCN(Cc3ccc4c(c3)OCO4)CC2)c(C)c1` here?
Its Potency is inconclusive: 3.55 µM [inhibitor, full curve, poor fit].

With `O=c1[nH]c(=S)n(C2CC2)c(O)c1C=NCCN1CCOCC1` as the molecule, how does the Potency read?
The Potency was inconclusive: 89.1 µM [inhibitor, single point].

With `O=S(=O)(F)CCS(=O)(=O)c1ccc(Cl)cc1` as the molecule, how does the Potency read?
The Potency was inconclusive: 44.7 µM [inhibitor, partial curve, poor fit].

How did the Potency turn out when `O=C(c1ccccc1)N1C[C@@H]2C[C@H](C1)c1ccc(NS(=O)(=O)c3cccs3)c(=O)n1C2` was run?
The Potency was inconclusive: 14.1 µM [inhibitor, full curve].

With `O=C1NC(=S)NC(=O)C1=Cc1cccn1-c1ccc(O)cc1` as the molecule, how does the Potency read?
Its Potency is inconclusive: 56.2 µM [inhibitor, partial curve, poor fit].

`COc1ccc(OC)c(N2C(=O)NC(=O)C3(Cc4cc(C)ccc4N(C)C3)C2=O)c1` (configuration not stated) was tested. Which Potency did it give?
Its Potency is inconclusive: 31.6 µM [inhibitor, partial curve].

Which Potency does the source give for `O=C(Nc1nc2ccccc2s1)C12CC3CC(CC(C3)C1)C2` here?
The Potency was inconclusive: 79.4 µM [inhibitor, single point].

With `CCOc1ccccc1CNCCc1c[nH]c2ccccc12` as the molecule, how does the Potency read?
The Potency was inconclusive: 112 µM [inhibitor, single point].

How did the Potency turn out when `Cc1nc(-c2ccccc2Br)cc([C@H]2CN3CC[C@H]2C[C@@H]3CNC(=O)c2cccs2)n1` was run?
Its Potency is active: 35.5 µM.

How did the Potency turn out when `Cc1ccc(N2C(=O)NC(=O)/C(=C\c3cnc(-c4ccccc4)nc3)C2=O)cc1` was run?
Its Potency is inconclusive: 56.2 µM [inhibitor, partial curve, poor fit].

For `CCOc1cc(CN2CCN(C(=O)Cc3ccccc3)CC2)ccc1OC`, which Potency is on record?
Its Potency is active: 0.501 µM.

`O=C(Nc1cccc2ccccc12)N1Cc2ccccc2-n2nncc2C1` was tested. Which Potency did it give?
The Potency was “inactive”.

How did the Potency turn out when `COC(=O)Cc1ccccc1` was run?
The Potency was “inactive”.

With `COC1=C(C)C(=O)C2=C(C1=O)C(CO)N1C(C#N)C3CC4C(C1C2N1CCOC41)N3C` (configuration not stated) as the molecule, how does the Potency read?
The Potency was inconclusive: 70.8 µM [inhibitor, single point].

With `Cc1[nH]c2ccccc2c1/C=C/[N+](=O)[O-]` as the molecule, how does the Potency read?
Its Potency is inconclusive: 39.8 µM [inhibitor, partial curve, poor fit].

Which Potency does the source give for `O=C1CCCN1c1ccc(S(=O)(=O)O)cc1` (tested in a mixture with another compound) here?
The Potency was inconclusive: 100 µM [inhibitor, partial curve, poor fit].

Which Potency does the source give for `O=C1NC(=O)C2(Cc3ccccc3N3CCCC32)C(=O)N1c1cccc(Cl)c1` (configuration not stated) here?
Its Potency is inconclusive: 0.355 µM [inhibitor, full curve, poor fit].

`O=[S+]1([O-])NC2(CCN(Cc3ccoc3)C2)COc2ccncc21` (configuration not stated) was tested. Which activity change, negative = inhibition did it give?
The activity change, negative = inhibition was inactive: 1.98% [at 6.33 µM].

`O=C(NC1CCCCC1)N1C[C@@H]2C[C@H](C1)c1ccc(C3CCCCC3)c(=O)n1C2` was tested. Which Potency did it give?
Its Potency is “inactive”.

For `Cc1[nH]nc2c1C(c1ccc(-c3ccc(Cl)cc3)o1)SCC(=O)N2` (configuration not stated), which Potency is on record?
Its Potency is inconclusive: 20 µM [inhibitor, full curve, poor fit].

With `COc1ccc(NC(=O)C2C3CCC(O3)C2C(=O)O)c(OC)c1` (configuration not stated) as the molecule, how does the Potency read?
The Potency was inconclusive: 28.2 µM [inhibitor, full curve, poor fit].

`CCCN(CCC)CCc1ccc(O)c(O)c1` was tested. Which Potency did it give?
Its Potency is inconclusive: 63.1 µM [inhibitor, partial curve, poor fit].

For `O=C(NC[C@H]1C[C@@H]2CCN1C[C@@H]2CN1CCSCC1)c1ccccc1`, which Potency is on record?
The Potency was “inactive”.

How did the Potency turn out when `CN(CCOc1ccc(C=C2C(=O)NC(=O)NC2=O)cc1)c1ccccn1` was run?
Its Potency is inconclusive: 50.1 µM [inhibitor, partial curve, poor fit].

How did the Potency turn out when `O=c1[nH]c(=O)n(CCC2=CCCCC2)c(O)c1C=NCc1cccnc1` was run?
Its Potency is “inactive”.

With `Cc1nc2cnc(N3CCNCC3)nc2n(C)c1=O` as the molecule, how does the Potency read?
The Potency was inconclusive: 79.4 µM [inhibitor, single point].

With `CC(C)N1CCN(Cc2c[nH]c3ccccc23)CC1` as the molecule, how does the Potency read?
Its Potency is inconclusive: 2 µM [inhibitor, full curve].

With `COc1ccccc1-c1cc([C@H]2CN3CC[C@H]2C[C@@H]3COC(=O)NC2CCCCC2)nc(C)n1` as the molecule, how does the Potency read?
The Potency was inconclusive: 22.4 µM [inhibitor, full curve].

Which Potency does the source give for `CNC(C)c1ccc(Cl)cc1` (configuration not stated) here?
The Potency was inconclusive: 3.98 µM [inhibitor, partial curve, poor fit].

Which Potency does the source give for `O=C(O)CSC(c1ccccc1)c1ccc(Cl)cc1` (configuration not stated) here?
Its Potency is inconclusive: 79.4 µM [inhibitor, partial curve, poor fit].

Which Potency does the source give for `CN(C)C1C(=O)C(C(N)=O)=C(O)C2(O)C(=O)C3=C(O)c4c(O)cccc4C(C)(O)C3C(O)C12` (configuration not stated) here?
The Potency was inconclusive: 50.1 µM [inhibitor, partial curve].

`Cc1cc(N2CCOCC2)nc2ccc(NC(=O)CCC(=O)N3CCC4(CC3)OCCO4)cc12` was tested. Which Potency did it give?
The Potency was “inactive”.
